Results deposited as PubChem BioAssay AID1224826 (NIAID, 2016).
Aim: 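Knock-downs that raise or lower Tnf reporter signal after endotoxin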 (primary screen). Cell system: RAW264.7 G9 macrophages from mouse bearing reporters for p65 (GFP) and the Tnf promoter (mCherry). Reagents: siRNA pool against mouse genes, 100 nM. Duration: 16 h of LPS stimulation, after 2 days of siRNA transfection. Challenge: bacterial lipopolysaccharide (Salmonella minnesota R595), 10 ng/ml. Measured: 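Imaged Tnf reporter mCherry in nuclei, minus background, normalised per plate to the median and expressed as robust z-scores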. Reading the numbers: Tnf reporter robust z-score: higher = stronger Tnf promoter reporter signal after LPS; Tnf reporter intensity: higher = stronger Tnf promoter reporter signal. Active means: 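Called active when robust z-score is at most -1.3, matching the median of the Tlr4 knock-down control, or over 3; control wells and wells with under 50 cells never active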. Calls: active = Tnf reporter clearly lowered or raised; inactive = no clear change in Tnf reporter.
In all, the deposit lists about 17,000 reagents; below is an unselected part. About 1,110 of them (6.6%) were called active. 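Active means lowered or raised reporter signal; replicate intensities are raw and not normalised per plate.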 Unmarked entries are inactive. Reagents against one gene are numbered here.

| gene symbol | reagent no. | Tnf reporter robust z-score | fewer than 50 cells in well | Tnf reporter intensity, replicate 1 | Tnf reporter intensity, replicate 2 |
| --- | --- | --- | --- | --- | --- |
| Pdx1 | 1 | -0.79 | enough cells in well | 194 | 96.7 |
| Hbq1a | 1 | 2.17 | enough cells in well | 269 | 277 |
| Pdcd5 | 1 | -0.17 | enough cells in well | 249 | 155 |
| A830019P07Rik | 1 | -0.99 | enough cells in well | 110 | 106 |
| Stau2 | 1 | 1.6 | enough cells in well | 153 | 154 |
| Sbds | 1 | -0.91 | enough cells in well | 216 | 141 |
| Tceanc2 | 1 | -1.03 | enough cells in well | 124 | 88.1 |
| Tceanc2 | 2 | – | fewer than 50 cells per well; well left out of calls | 171 | 8.19 |
| Depdc5 | 1 | -0.53 | enough cells in well | 214 | 84.1 |
| Abhd10 | 1 | -1.25 | enough cells in well | 142 | 67.2 |
| Xxylt1 | 1 | -0.1 | enough cells in well | 152 | 226 |
| Bmpr1b | 1 | -0.47 | enough cells in well | 183 | 117 |
| Capn5 | 1 | 0 | enough cells in well | 174 | 163 |
| Armc12 | 1 | – | fewer than 50 cells per well; well left out of calls | 183 | 80.2 |
| Plaa | 1 | 0.58 | enough cells in well | 316 | 210 |
| Or1e32 | 1 | 3.5 (active) | enough cells in well | 383 | 270 |
| Etfdh | 1 | 0.13 | enough cells in well | 239 | 241 |
| Tll1 | 1 | -0.2 | enough cells in well | 209 | 131 |
| Tma7 | 1 | – | fewer than 50 cells per well; well left out of calls | 49 | 16.5 |
| Taf4b | 1 | 0.7 | enough cells in well | 171 | 222 |
| Tas2r106 | 1 | – | fewer than 50 cells per well; well left out of calls | 108 | 53.9 |
| Lrrc26 | 1 | 0.09 | enough cells in well | 223 | 202 |
| Cd274 | 1 | – | fewer than 50 cells per well; well left out of calls | 100 | 150 |
| Ccr1 | 1 | 0.09 | enough cells in well | 220 | 307 |
| Fibcd1 | 1 | 0.26 | enough cells in well | 241 | 188 |
| Or9g10 | 1 | 1.64 | enough cells in well | 265 | 255 |
| Stk25 | 1 | -0.12 | enough cells in well | 164 | 130 |
| Unk | 1 | 0.22 | enough cells in well | 131 | 33.9 |
| Gatad2a | 1 | 0.42 | enough cells in well | 250 | 220 |
| Rbmy | 1 | 0.06 | enough cells in well | 368 | 174 |
| Vgll1 | 1 | -2.02 (active) | enough cells in well | 41.2 | 44.1 |
| Klf10 | 1 | -0.51 | enough cells in well | 196 | 109 |

Already shown: entries from further up.
| gene symbol | reagent no. | Tnf reporter robust z-score | fewer than 50 cells in well | Tnf reporter intensity, replicate 1 | Tnf reporter intensity, replicate 2 |
| --- | --- | --- | --- | --- | --- |
| Hbq1a | 1 | 2.17 | enough cells in well | 269 | 277 |
| Pdcd5 | 1 | -0.17 | enough cells in well | 249 | 155 |
| A830019P07Rik | 1 | -0.99 | enough cells in well | 110 | 106 |
| Stau2 | 1 | 1.6 | enough cells in well | 153 | 154 |
| Sbds | 1 | -0.91 | enough cells in well | 216 | 141 |
| Tceanc2 | 1 | -1.03 | enough cells in well | 124 | 88.1 |
| Tceanc2 | 2 | – | fewer than 50 cells per well; well left out of calls | 171 | 8.19 |

The list goes on:
| gene symbol | reagent no. | Tnf reporter robust z-score | fewer than 50 cells in well | Tnf reporter intensity, replicate 1 | Tnf reporter intensity, replicate 2 |
| --- | --- | --- | --- | --- | --- |
| Ror2 | 1 | -0.86 | enough cells in well | 139 | 114 |
| Rbbp5 | 1 | 0.92 | enough cells in well | 433 | 249 |
| Abcc10 | 1 | 0.74 | enough cells in well | 185 | 212 |
| A930002I21Rik | 1 | 1.55 | enough cells in well | 254 | 241 |
| Morf4l2 | 1 | 2.42 | enough cells in well | 347 | 228 |
| Nup155 | 1 | 0.03 | enough cells in well | 185 | 155 |
| Tubb2a | 1 | -0.05 | enough cells in well | 217 | 236 |
| Edrf1 | 1 | 0.5 | enough cells in well | 289 | 108 |
| Ptpn4 | 1 | -0.03 | enough cells in well | 239 | 194 |
| Lyrm2 | 1 | 0.71 | enough cells in well | 264 | 101 |
| Irf2bp1 | 1 | -1.89 (active) | enough cells in well | 77.4 | 44.3 |
| Arrb2 | 1 | – | fewer than 50 cells per well; well left out of calls | 185 | 75.5 |
| Tbpl2 | 1 | -0.67 | enough cells in well | 89.4 | 73.6 |
| Cryzl1 | 1 | -0.12 | enough cells in well | 215 | 206 |
| Mpz | 1 | -0.05 | enough cells in well | 248 | 211 |
| Stmn1 | 1 | -0.49 | enough cells in well | 196 | 211 |
| Tmem150cos | 1 | 0.16 | enough cells in well | 176 | 164 |
| N4bp3 | 1 | -0.17 | enough cells in well | 89.7 | 179 |
| Lrrc4 | 1 | -1.17 | enough cells in well | 140 | 67.6 |
| Eng | 1 | 0.31 | enough cells in well | 222 | 288 |
| Zmiz1 | 1 | 1.32 | enough cells in well | 204 | 239 |
| Prkag2 | 1 | -1.05 | enough cells in well | 113 | 88.7 |
| Rps7 | 1 | -1.5 (active) | enough cells in well | 58.1 | 57.8 |
| Pnliprp1 | 1 | 0.12 | enough cells in well | 291 | 169 |
| Vmn1r237 | 1 | 0.07 | enough cells in well | 280 | 89.5 |
| Thap11 | 1 | -1.18 | enough cells in well | 66 | 60.3 |
| Fra10ac1 | 1 | 0.87 | enough cells in well | 210 | 198 |
| Fam53b | 1 | -1.54 (active) | enough cells in well | 81.4 | 74.6 |
| Omt2b | 1 | 2.14 | enough cells in well | 281 | 243 |
| Slc22a20 | 1 | -0.93 | enough cells in well | 191 | 97.2 |
| 2610318N02Rik | 1 | -0.15 | enough cells in well | 236 | 59.4 |
| Ormdl3 | 1 | 0.7 | enough cells in well | 179 | 167 |
| Clic5 | 1 | 0.68 | enough cells in well | 299 | 259 |
| Vmn1r185 | 1 | -1.23 | enough cells in well | 71.4 | 25.1 |
| Xpot | 1 | 0.29 | enough cells in well | 240 | 267 |
| Kng1 | 1 | -0.17 | enough cells in well | 226 | 142 |
| Mier2 | 1 | 1.13 | enough cells in well | 307 | 109 |
| Or10ag2 | 1 | 0.26 | enough cells in well | 187 | 177 |
| Serpinb9b | 1 | -0.92 | enough cells in well | 71.5 | 72.4 |
| Nell1 | 1 | 0.53 | enough cells in well | 247 | 150 |
| Sprr2g | 1 | 0.41 | enough cells in well | 101 | 125 |
| Nfatc1 | 1 | -1.34 (active) | enough cells in well | 151 | 76.6 |
| Zcchc14 | 1 | 0.97 | enough cells in well | 92.3 | 218 |
